A weaker result is weaker than the reference pair of the same experiment.
Legend:
[1] = target: ZNF432 full-length (Homo sapiens) (UniProt O94892); assay: EMSA; conditions: glutaraldehyde fixation, binds, but less strongly than ssDNA; 25 mM MOPS pH 7.0, 60 mM KCl, 0.2% Tween, 2 mM DTT; 1 mM without fixation for Kd), 37 C 30 min; recombinant protein; residues 1-652; protein details: C-terminal 10xHis (GST removed with PreScission); label: 32P (gamma-32P)
[2] = target: ZNF432 full-length (Homo sapiens) (UniProt O94892); assay: competition with a labelled probe; conditions: dsDNA in competition with labeled ssDNA probe, ssDNA preferred, glutaraldehyde fixation; 25 mM MOPS pH 7.0, 60 mM KCl, 0.2% Tween, 2 mM DTT; 1 mM without fixation for Kd), 37 C 30 min; recombinant protein; residues 1-652; protein details: C-terminal 10xHis (GST removed with PreScission); label: 32P (gamma-32P)

Chains of the proteins cited; added tags and fusions are not shown. Lines headed by an entry give the natural chain unless they say otherwise; changes in a name come on top.
UniProt O94892: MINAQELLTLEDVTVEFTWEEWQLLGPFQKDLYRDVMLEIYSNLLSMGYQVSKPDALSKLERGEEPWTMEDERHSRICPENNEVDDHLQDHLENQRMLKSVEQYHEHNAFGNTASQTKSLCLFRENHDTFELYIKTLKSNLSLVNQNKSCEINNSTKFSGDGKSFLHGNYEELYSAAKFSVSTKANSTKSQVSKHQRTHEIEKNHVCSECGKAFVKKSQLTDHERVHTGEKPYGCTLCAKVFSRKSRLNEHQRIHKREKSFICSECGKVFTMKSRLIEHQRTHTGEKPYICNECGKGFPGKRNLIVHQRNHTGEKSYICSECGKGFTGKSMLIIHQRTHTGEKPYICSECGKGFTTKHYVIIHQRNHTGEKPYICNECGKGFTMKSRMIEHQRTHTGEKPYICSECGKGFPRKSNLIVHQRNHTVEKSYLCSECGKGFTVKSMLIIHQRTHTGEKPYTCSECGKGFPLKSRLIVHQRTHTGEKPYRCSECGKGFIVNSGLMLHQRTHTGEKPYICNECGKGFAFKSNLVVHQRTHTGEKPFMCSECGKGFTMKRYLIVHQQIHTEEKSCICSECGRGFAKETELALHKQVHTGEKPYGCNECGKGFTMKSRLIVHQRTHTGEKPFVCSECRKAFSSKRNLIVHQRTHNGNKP

GGGCGAATTGGGCCCGACGTCGCATGCTCCTCTAGACTCGAGGAATTCGGTACCCCGGGTTCGAAATCGATAAGCTTACAGTCTCCATTTAAAGGACAAG (double strand) [Double-stranded DNA]
binding result [1]: binds more weakly | binding result [2]: binds more weakly
